Measured values: the supplement of paper PMC10331698
± gives the standard deviation of the averaged measurements. Most entries show no effect beyond the scatter of the controls.

Tests used:
Experiment in all cases: level (log10 ratio to DMSO vehicle control); higher = higher biomarker level / cell amount than vehicle control
[1] = compound: O=S(=O)(O)C(F)(F)C(F)(F)C(F)(F)C(F)(F)F [Perfluorobutanesulfonic acid] (in DMSO)
Method: (§1)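 BioMAP Diversity Plus panel of 12 human primary cell co-culture systems (3C, 4H, LPS, SAg, BT, BF4T, BE3C, CASM3C, HDF3CGF, KF3CT, MyoF, Mphg). Compounds were added 1 h before stimulation and left for 24 h (MyoF 48 h; BT 72 h for soluble read-outs or 6 d for IgG). Biomarkers were read by ELISA, cytotoxicity by SRB, PBMC viability and proliferation by Alamar Blue. Each well value was divided by the mean of 8 DMSO control wells on the same plate and log10 transformed; duplicate blinded samples were tested at 4 concentrations.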

[2] = compound: FC(F)(F)COC(OCC(F)(F)F)OCC(F)(F)F [tris(Trifluoroethoxy)methane] (in DMSO); settings: 2200 nM
Method: as §1

[3] = compound: O=C(O)C(F)(OC(F)(F)C(F)(F)C(F)(F)F)C(F)(F)F [Ammonium perfluoro-2-methyl-3-oxahexanoate] (in Water)
Method: as §1

Perfluorohexanoic acid = compound: O=C(O)C(F)(F)C(F)(F)C(F)(F)C(F)(F)C(F)(F)F [Perfluorohexanoic acid] (in DMSO)
Method: as §1

[4] = compound: O=C(O)C(F)(OC(F)(F)C(F)(OC(F)(F)C(F)(OC(F)(F)C(F)(F)C(F)(F)F)C(F)(F)F)C(F)(F)F)C(F)(F)F [Perfluoro-(2,5,8-trimethyl-3,6,9-trioxadodecanoic)acid] (in DMSO); settings: 370 nM
Method: as §1

[5] = compound: OCCCC(F)(F)C(F)(F)C(F)(F)C(F)(F)C(F)(F)C(F)(F)C(F)(F)C(F)(F)F [3-(Perfluorooctyl)propanol] (in DMSO); settings: 2200 nM
Method: as §1

[6] = compound: OCC(F)(F)C(F)(F)C(F)(F)C(F)F [1H,1H,5H-Perfluoropentanol] (in DMSO); settings: 2200 nM
Method: as §1

Hexafluoroglutaric acid = compound: O=C(O)C(F)(F)C(F)(F)C(F)(F)C(=O)O [Hexafluoroglutaric acid] (in DMSO)
Method: as §1

[7] = compound: FC(F)(F)C(F)(F)C(F)(F)C(F)(F)CCI [1H,1H,2H,2H-Perfluorohexyl iodide] (in DMSO); settings: 2200 nM
Method: as §1

[8] = compound: CNS(=O)(=O)C(F)(F)C(F)(F)C(F)(F)C(F)(F)C(F)(F)C(F)(F)C(F)(F)C(F)(F)F [N-Methylperfluorooctanesulfonamide] (in DMSO); settings: 2200 nM
Method: as §1

[9] = compound: OCC(F)(F)OC(F)(F)C(F)(F)OC(F)(F)CO [1H,1H,8H,8H-Perfluoro-3,6-dioxaoctane-1,8-diol] (in DMSO); settings: 2200 nM
Method: as §1

[10] = compound: FC(F)(F)C(F)(F)CNCC(F)(F)C(F)(F)F [Bis(1H,1H-perfluoropropyl)amine] (in DMSO); settings: 2200 nM
Method: as §1

[11] = compound: O=C(O)C(F)(F)C(F)(F)C(F)(F)OC(F)(C(F)(F)F)C(F)(F)F [Perfluoro-4-isopropoxybutanoic acid] (in DMSO); settings: 2200 nM
Method: as §1

[12] = compound: OCC(F)(F)C(F)(F)C(F)(F)C(F)(F)C(F)(F)C(F)(F)CO [1H,1H,8H,8H-Perfluorooctane-1,8-diol] (in DMSO); settings: 2200 nM
Method: as §1

[13] = compound: O=C(O)CCC(F)(F)C(F)(F)C(F)(F)F [3:3 Fluorotelomer carboxylic acid] (in DMSO); settings: 2200 nM
Method: as §1

[14] = compound: OCC(F)(F)C(F)(F)C(F)(F)C(F)(F)C(F)(F)C(F)(F)F [6:1 Fluorotelomer alcohol] (in DMSO); settings: 2200 nM
Method: as §1

[15] = compound: C=C(C)C(=O)OCCC(F)(F)C(F)(F)C(F)(F)C(F)(F)C(F)(F)C(F)(F)F [6:2 Fluorotelomer methacrylate] (in DMSO); settings: 2200 nM
Method: as §1

| Test System | level (log10) ([1]; 2200 nM) | level (log10) ([1]; 6700 nM) | level (log10) ([1]; 20000 nM) | level (log10) ([1]; 60000 nM) | level (log10) [2] | level (log10) ([3]; 2200 nM) | level (log10) ([3]; 6700 nM) | level (log10) ([3]; 20000 nM) | level (log10) ([3]; 60000 nM) | level (log10) (Perfluorohexanoic acid; 2200 nM) | level (log10) (Perfluorohexanoic acid; 6700 nM) | level (log10) (Perfluorohexanoic acid; 20000 nM) | level (log10) (Perfluorohexanoic acid; 60000 nM) | level (log10) [4] | level (log10) [5] | level (log10) [6] | level (log10) (Hexafluoroglutaric acid; 2200 nM) | level (log10) (Hexafluoroglutaric acid; 6700 nM) | level (log10) (Hexafluoroglutaric acid; 20000 nM) | level (log10) (Hexafluoroglutaric acid; 60000 nM) | level (log10) [7] | level (log10) [8] | level (log10) [9] | level (log10) [10] | level (log10) [11] | level (log10) [12] | level (log10) [13] | level (log10) [14] | level (log10) [15] |
| --- | --- | --- | --- | --- | --- | --- | --- | --- | --- | --- | --- | --- | --- | --- | --- | --- | --- | --- | --- | --- | --- | --- | --- | --- | --- | --- | --- | --- | --- |
| HDF3CGF:EGFR | -0.0145 ± 0.061 | 0.0105 ± 0.005 | -0.032 ± 0.048 | -0.0205 ± 0.032 | 0.0055 ± 0.015 | 0.012 ± 0.013 | -0.017 ± 0.014 | 0.0145 ± 0.026 | 0.0535 ± 0.005 | -0.093 ± 0.15 | 0.027 ± 0.017 | 0.03 ± 0.021 | 0.003 ± 0.081 | 0.0095 ± 0.073 | -0.032 ± 0.0028 | 0.006 ± 0.013 | -0.0215 ± 0.028 | -0.021 ± 0.061 | -0.0285 ± 0.056 | -0.021 ± 0.072 | 0.016 ± 0.0085 | 0.027 ± 0.027 | 0.0205 ± 0.0092 | 0.022 ± 0.05 | 0.007 ± 0.0042 | -0.0305 ± 0.0035 | -0.0105 ± 0.011 | 0.003 ± 0.057 | 0.0265 ± 0.037 |
| HDF3CGF:M-CSF | 0.014 ± 0.028 | 0.011 ± 0.0085 | 0.0045 ± 0.0035 | 0.0025 ± 0.005 | 0.0035 ± 0.022 | -0.0455 ± 0.022 | -0.0345 ± 0.00071 | -0.0245 ± 0.013 | -0.0595 ± 0.035 | -0.01 ± 0.0099 | -0.015 ± 0.059 | 0.013 ± 0.021 | -0.006 ± 0.05 | 0.005 ± 0.028 | 0.0145 ± 0.00071 | -0.0525 ± 0.077 | -0.0255 ± 0.0064 | -0.0015 ± 0.013 | -0.006 ± 0.033 | -0.0285 ± 0.029 | -0.011 ± 0.0071 | 0.007 ± 0.013 | 0.011 ± 0.013 | 0.0025 ± 0.005 | -0.0065 ± 0.0021 | 0.0285 ± 0.0035 | 0.009 ± 0.017 | 0.034 ± 0.018 | -0.02 ± 0.0028 |
| HDF3CGF:MMP-1 | -0.0155 ± 0.0035 | 0.0085 ± 0.011 | 0.002 ± 0.013 | -0.0165 ± 0.036 | -0.0145 ± 0.0035 | -0.005 ± 0.0085 | 0.0035 ± 0.016 | 0.011 | 0.008 ± 0.0085 | 0.0185 ± 0.00071 | 0.0155 ± 0.036 | 0.0045 ± 0.016 | -0.0145 ± 0.043 | 0.018 ± 0.028 | 0.017 ± 0.014 | -0.015 ± 0.0071 | -0.005 ± 0.014 | 0.0195 ± 0.0092 | 0.002 ± 0.02 | -0.0045 ± 0.021 | 0.003 ± 0.0042 | 0.0035 ± 0.00071 | -0.007 ± 0.0057 | -0.006 ± 0.023 | 0.001 ± 0.0099 | -0.008 ± 0.016 | 0.015 ± 0.023 | -0.013 ± 0.028 | 0.0035 ± 0.0035 |
| HDF3CGF:PAI-I | 0.0075 ± 0.011 | -0.017 ± 0.034 | 0.007 ± 0.045 | -0.0075 ± 0.03 | -0.01 ± 0.037 | -0.088 ± 0.016 | -0.0825 ± 0.052 | -0.0995 ± 0.013 | -0.051 ± 0.054 | -0.005 ± 0.09 | 0.0415 ± 0.044 | -0.0095 ± 0.021 | 0.025 ± 0.075 | 0.043 ± 0.057 | -0.0065 ± 0.076 | -0.044 ± 0.13 | 0.001 ± 0.0057 | -0.0115 ± 0.016 | -0.007 ± 0.014 | 0.0075 ± 0.021 | 0.0205 ± 0.005 | 0.0555 ± 0.026 | 0.013 ± 0.057 | 0.012 ± 0.013 | 0.0255 ± 0.021 | 0.0065 ± 0.032 | 0.01 ± 0.051 | -0.007 ± 0.024 | -0.032 ± 0.041 |
| HDF3CGF:Proliferation 72hr | -0.04 ± 0.016 | -0.0045 ± 0.013 | -0.0195 ± 0.015 | 0.0155 ± 0.05 | -0.025 ± 0.068 | 0.046 ± 0.088 | 0.0575 ± 0.057 | 0.0635 ± 0.066 | -0.0255 ± 0.056 | -0.032 ± 0.082 | 0.04 ± 0.0014 | 0.015 ± 0.034 | 0.0305 ± 0.037 | 0.0055 ± 0.039 | 0.012 ± 0.073 | -0.0215 ± 0.035 | -0.0905 ± 0.044 | -0.011 ± 0.059 | -0.013 ± 0.028 | -0.008 ± 0.05 | -0.021 ± 0.0014 | 0.02 ± 0.067 | -0.026 ± 0.02 | -0.013 ± 0.013 | -0.008 ± 0.02 | -0.0565 ± 0.044 | -0.0165 ± 0.081 | 0.0035 ± 0.033 | -0.048 ± 0.011 |
| HDF3CGF:SRB | 0.002 ± 0.011 | 0.018 ± 0.03 | 0.023 ± 0.013 | 0.004 ± 0.033 | 0.013 ± 0.024 | 0.0045 ± 0.0078 | -0.033 ± 0.02 | -0.0325 ± 0.0021 | -0.0175 ± 0.011 | 0.0055 ± 0.0078 | 0.0135 ± 0.013 | 0.0305 ± 0.022 | -0.0055 ± 0.0092 | 0.038 ± 0.028 | -0.013 ± 0.018 | 0.0035 ± 0.05 | -0.0325 ± 0.064 | -0.03 ± 0.083 | -0.0095 ± 0.097 | 0.0245 ± 0.12 | -0.0395 ± 0.059 | -0.0005 ± 0.0021 | -0.0395 ± 0.021 | 0.0035 ± 0.025 | -0.0345 ± 0.026 | -0.026 ± 0.038 | -0.025 ± 0.041 | 0.038 ± 0.0099 | 0.003 ± 0.027 |
| HDF3CGF:TIMP-1 | 0.0175 ± 0.016 | -0.032 ± 0.064 | 0.0125 ± 0.0078 | 0.0195 ± 0.011 | 0 ± 0.027 | -0.045 ± 0.11 | 0.025 ± 0.0028 | 0.014 ± 0.024 | -0.0135 ± 0.0064 | 0.013 ± 0.0028 | -0.0005 ± 0.0078 | -0.002 ± 0.016 | 0.0025 ± 0.015 | -0.0015 ± 0.029 | 0.0105 ± 0.049 | -0.0055 ± 0.0035 | -0.032 ± 0.038 | -0.0385 ± 0.026 | -0.02 ± 0.072 | -0.045 ± 0.073 | 0.045 ± 0.023 | 0.0315 ± 0.018 | 0.0055 ± 0.042 | 0.015 ± 0.0042 | 0.02 ± 0.02 | 0.009 ± 0.023 | -0.0045 ± 0.029 | -0.024 ± 0.021 | 0.0235 ± 0.013 |
| HDF3CGF:TIMP-2 | -0.0195 ± 0.049 | 0.0135 ± 0.037 | 0.017 ± 0.023 | 0.031 ± 0.014 | -0.0225 ± 0.018 | 0.0005 ± 0.12 | 0.0405 ± 0.07 | 0.0435 ± 0.013 | -0.0185 ± 0.079 | 0.004 ± 0.024 | 0.033 ± 0.0014 | 0.021 ± 0.017 | 0.025 ± 0.037 | 0.012 ± 0.035 | 0.024 | -0.066 ± 0.061 | -0.02 ± 0.011 | -0.041 ± 0.0014 | 0.01 ± 0.0028 | -0.0345 ± 0.0021 | -0.0125 ± 0.00071 | -0.0725 ± 0.011 | -0.007 ± 0.02 | -0.008 ± 0.027 | 0.007 ± 0.016 | -0.002 ± 0.021 | -0.0205 ± 0.039 | -0.0175 ± 0.013 | -0.022 ± 0.054 |
